Laboratory results from patent US20140296707A1, “LUMINESCENT COMPOSITION AS BIOMARKER IN A BIRD'S EGG, CORRESPONDENCE DEVICE AND METHOD” (priority 2010, published 2014).
No dose or concentration is given here for some results.

Tested on: fertilized eggs at 18.5 days of incubation
Assay: Determination of the optimal concentration of luminescent compound and the optimal acquisition time of the signal after in ovo injection
Format: in vivo, bird
Conditions: 24 fertilized eggs at 18.5 days of incubation

## CC1(C)C(/C=C/C=C/C=C/C=C2\N(CCCCS(=O)(=O)[O-])c3ccc4ccccc4c3C2(C)C)=[N+](CCCCS(=O)(=O)[O-])c2ccc3ccccc3c21.[Na+] [indocyanine green]
720 images analyzed
  optimal concentration of luminescent compound (Copt): 50 micromoles per litre
Camera image capture under laser excitation
  optimal acquisition time of the signal (Topt): 90 s
